Data: patent US20160237119A1 (UNIVERSITY OF TOKYO, published 2016)
Results are given in words; binding and its absence hold for the method and conditions named. Some results given as binding are weak or reduced against the parent protein; the word gives no strength.

Target: T1, c-Met-Fc chimera protein (UniProt P08581 25-932, limits assumed)
T1 construct: Captured on the SPR chip by an anti-IgG antibody; not shown: Fc part
Assay: SPR (Biacore) as in 9-1, c-Met-Fc on chip

- binding: binds
B1: D4-3 dimeric peptide, linker BMH (peptide)
peptide: YRQFNRRTHEVWNLDCGC
modifications: BMH linker on the added C-terminal Cys; thioether macrocycle; no N-methyl groups
